Experimental data published in paper PMC6372663.
These are yes or no findings as the source states them, for the method shown. Some entries that bind do so weakly or less than the wild type.

Sequences of proteins named here, by UniProt entry; tags and fusion partners are left off.
UniProt P63279: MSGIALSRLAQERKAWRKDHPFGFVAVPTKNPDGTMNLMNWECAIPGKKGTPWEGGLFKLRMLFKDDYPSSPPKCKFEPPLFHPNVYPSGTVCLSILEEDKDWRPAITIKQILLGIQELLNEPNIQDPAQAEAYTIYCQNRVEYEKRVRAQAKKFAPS
UniProt Q93009: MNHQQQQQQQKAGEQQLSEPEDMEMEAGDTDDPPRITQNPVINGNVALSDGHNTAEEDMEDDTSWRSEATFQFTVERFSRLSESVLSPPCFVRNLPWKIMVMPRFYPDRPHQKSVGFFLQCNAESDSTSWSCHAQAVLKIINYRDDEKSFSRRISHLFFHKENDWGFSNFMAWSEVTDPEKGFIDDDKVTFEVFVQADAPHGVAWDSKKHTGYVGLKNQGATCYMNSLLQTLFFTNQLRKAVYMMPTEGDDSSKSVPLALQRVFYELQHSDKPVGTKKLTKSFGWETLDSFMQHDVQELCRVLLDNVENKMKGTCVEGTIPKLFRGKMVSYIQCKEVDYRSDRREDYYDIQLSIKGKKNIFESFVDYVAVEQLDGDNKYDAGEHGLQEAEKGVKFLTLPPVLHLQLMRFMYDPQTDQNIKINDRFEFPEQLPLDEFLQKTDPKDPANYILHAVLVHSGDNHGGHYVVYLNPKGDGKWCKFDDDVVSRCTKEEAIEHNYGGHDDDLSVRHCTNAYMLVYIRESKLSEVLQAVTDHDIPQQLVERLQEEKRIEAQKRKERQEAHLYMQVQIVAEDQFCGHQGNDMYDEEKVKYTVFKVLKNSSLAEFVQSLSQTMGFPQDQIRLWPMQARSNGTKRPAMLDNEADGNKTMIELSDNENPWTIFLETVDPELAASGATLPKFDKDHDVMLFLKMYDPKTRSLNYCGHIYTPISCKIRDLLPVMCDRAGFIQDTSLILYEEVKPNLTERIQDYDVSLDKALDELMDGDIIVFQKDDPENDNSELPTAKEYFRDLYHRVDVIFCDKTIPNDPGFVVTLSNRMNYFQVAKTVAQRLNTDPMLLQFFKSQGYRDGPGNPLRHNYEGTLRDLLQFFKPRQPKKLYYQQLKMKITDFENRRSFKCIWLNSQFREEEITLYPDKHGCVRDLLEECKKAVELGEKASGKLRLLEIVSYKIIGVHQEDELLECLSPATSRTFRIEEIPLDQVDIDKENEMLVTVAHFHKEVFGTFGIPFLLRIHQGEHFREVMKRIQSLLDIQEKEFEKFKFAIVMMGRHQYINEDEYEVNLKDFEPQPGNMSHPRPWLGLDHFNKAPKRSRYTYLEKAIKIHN

T1: PiT1/SLC20A1 (UniProt Q8WUM9)
T1 sequence: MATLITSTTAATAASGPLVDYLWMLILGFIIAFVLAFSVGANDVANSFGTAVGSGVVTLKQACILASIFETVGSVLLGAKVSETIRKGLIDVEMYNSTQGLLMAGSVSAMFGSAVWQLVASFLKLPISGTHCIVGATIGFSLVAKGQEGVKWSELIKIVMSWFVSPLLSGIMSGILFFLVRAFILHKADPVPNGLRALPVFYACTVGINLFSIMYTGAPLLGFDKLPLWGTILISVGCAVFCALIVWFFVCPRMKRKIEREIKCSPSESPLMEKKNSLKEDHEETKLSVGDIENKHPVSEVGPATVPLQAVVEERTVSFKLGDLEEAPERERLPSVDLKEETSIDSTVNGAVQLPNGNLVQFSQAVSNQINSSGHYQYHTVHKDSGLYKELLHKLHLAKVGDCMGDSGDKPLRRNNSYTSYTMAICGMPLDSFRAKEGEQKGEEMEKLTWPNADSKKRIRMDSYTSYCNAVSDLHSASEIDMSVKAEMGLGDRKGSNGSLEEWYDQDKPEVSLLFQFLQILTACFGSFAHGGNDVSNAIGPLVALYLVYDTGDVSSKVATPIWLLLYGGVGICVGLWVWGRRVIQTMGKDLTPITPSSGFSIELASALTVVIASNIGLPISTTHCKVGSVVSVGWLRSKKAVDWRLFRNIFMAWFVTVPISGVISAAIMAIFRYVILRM


Target: T1, PiT1/SLC20A1
Assay: two-hybrid; yeast two-hybrid screen 'performed by our group', told only in the discussion without citation or methods; bait, library and conditions not told

Row | binding | Molecule
1 | binds | UBC9 (from UniProt P63279 1-158) (enzyme)
2 | binds | USP7 (from UniProt Q93009 1-1102) (enzyme)
3 | binds | SIAH2 (enzyme, UniProt O43255 1-324) MSRPSSTGPSANKPCSKQPPPQPQHTPSPAAPPAAATISAAGPGSSAVPAAAAVISGPGGGGGAGPVSPQHHELTSLFECPVCFDYVLPPILQCQAGHLVCNQCRQKLSCCPTCRGALTPSIRNLAMEKVASAVLFPCKYATTGCSLTLHHTEKPEHEDICEYRPYSCPCPGASCKWQGSLEAVMSHLMHAHKSITTLQGEDIVFLATDINLPGAVDWVMMQSCFGHHFMLVLEKQEKYEGHQQFFAIVLLIGTRKQAENFAYRLELNGNRRRLTWEATPRSIHDGVAAAIMNSDCLVFDTAIAHLFADNGNLGINVTISTCCP
